Reference: patent publication US10934258B2, “Materials for use in an aqueous organic redox flow battery” (Utah State University, priority 2016, dated 2021)

Legend:
[1] = Post-cell CV and 1H NMR analysis of flow cell electrolytes
[2] = Solubility by preparing a super-saturated solution
Method: Chemicals and Materials. All chemicals were purchased from Aldrich or TCI, stored in an Argon glovebox, and used directly. Solubility of substituted ferrocene compounds was measured in water by preparing a super-saturated solution in a volumetric cylinder. Deionized water was purged overnight using N2 before use. All experimental operations were conducted under a N2 atmosphere. Conductivity of the electrolyte solutions was measured using a Mettler Toledo conductivity meter at R.T. NMR studies were conducted using a Bruker 500 MHz NMR spectrometer. UV-Vis was collected using an Ocean Optic spectrometer. Elemental analysis was done at Atlantic Microlab.
Calculation of theoretical energy density: The theoretical energy density of the FcNCl/MV AORFB was calculated using equation 3 below, where n is the number of electrons involved into the cell reaction, C is the concentration of active materials, F is Faraday constant, 26.8 Ah/mol, V is the cell voltage, and 2 represents a factor considering both volumes of anolyte and catholyte. Solubility of FcNCl and MV was measured in water respectively by preparing a super-saturated solution. Similar solubility tests in water were applied for ferrocenecarboxylic acid, 1-1′-ferrocenedicarboxilic acid, ferrocenecarboxylic acid, and 1,1′-ferrocenedimethanol. Energy density (Wh/L)=nCFV/2 (equation 3)

[3] = (NPr)2V/[FcN^Et]Br cell after 100 cycles, post-cell CV
[4] = 0.5 M FcNCl/MV cell after 400 cycles, CV and 1H NMR

Compound	crossover through anion exchange membrane [1, 3]	crossover through anion exchange membrane [1, 4]	other results
C[N+](C)(C)CCC[n+]1ccc(-c2cc[n+](CCC[N+](C)(C)C)cc2)cc1.[Br-].[Br-].[Br-].[Br-] [(NPr)2V, 1,1′-bis[3-(trimethylamonium)propyl]-4,4′-bipyridinium, tetrabromide]	no electrolyte crossover		
O=S(=O)([O-])CCC[n+]1ccc(-c2cc[n+](CCCS(=O)(=O)[O-])cc2)cc1 [(SPr)2V, 1,1′-bis[3-sulfonatopropyl]-4,4′-bipyridinium]			charge capacity in 1.5 M KCl ([2]; 1.7 M in 1.5 M KCl): 42.9 Ah/L; charge capacity (one-electron) ([2]; 2.0 M in H2O, one electron): 53.5 Ah/L
C[N+](C)(C)C[c-]1cccc1.[Cl-].[Fe+2].c1cc[cH-]c1 [FcNCl, (ferrocenylmethyl)trimethylammonium chloride]		no crossover	
C[n+]1ccc(-c2cc[n+](C)cc2)cc1 [MV, methyl viologen, reference compound]		no crossover	
CC[N+](C)(C)C[c-]1cccc1.[Br-].[Fe+2].c1cc[cH-]c1 [[FcN^Et]Br, (ferrocenylmethyl)ethyldimethylammonium bromide]	no electrolyte crossover		
